Measurements taken from the supplement of paper PMC10849652.
This is one part of the list. Residues, ends and D or L forms follow the SMILES beside them. *: point of attachment. Cbz = O=C(OCc1ccccc1)*

Sequences of proteins named here, by UniProt entry; tags and fusion partners are left off. A change or cut given only in a name is not applied to a line headed by its entry.
UniProt Q92901: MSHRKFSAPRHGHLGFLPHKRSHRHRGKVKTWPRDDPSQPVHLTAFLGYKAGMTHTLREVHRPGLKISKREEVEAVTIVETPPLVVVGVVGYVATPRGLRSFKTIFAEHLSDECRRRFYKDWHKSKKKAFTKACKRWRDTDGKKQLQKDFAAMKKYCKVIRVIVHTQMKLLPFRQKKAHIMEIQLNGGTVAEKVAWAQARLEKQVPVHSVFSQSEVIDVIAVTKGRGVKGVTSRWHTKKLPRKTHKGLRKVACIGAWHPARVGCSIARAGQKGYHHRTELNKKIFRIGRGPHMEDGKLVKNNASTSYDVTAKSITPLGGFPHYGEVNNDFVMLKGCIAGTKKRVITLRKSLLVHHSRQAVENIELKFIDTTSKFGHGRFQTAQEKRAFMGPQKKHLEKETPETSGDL
UniProt P78345: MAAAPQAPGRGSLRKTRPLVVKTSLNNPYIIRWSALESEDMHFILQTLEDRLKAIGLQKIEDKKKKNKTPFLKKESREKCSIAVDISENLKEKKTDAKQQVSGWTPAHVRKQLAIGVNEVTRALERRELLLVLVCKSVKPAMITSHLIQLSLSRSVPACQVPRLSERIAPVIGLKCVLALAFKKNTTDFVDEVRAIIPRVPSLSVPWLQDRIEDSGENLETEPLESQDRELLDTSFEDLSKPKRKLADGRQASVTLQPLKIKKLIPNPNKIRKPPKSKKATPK

Assays:
Test in all cases: log2 fold change, soluble protein after heating vs DMSO (PISA); higher = thermal stabilisation; K562 cells, 10 uM, 30 min; active = over 0.2 and 3.5 SD of the protein, either way, in both replicates (recomputed)
erlotinib = compound: C#Cc1cccc(Nc2ncnc3cc(OCCOC)c(OCCOC)cc23)c1 [erlotinib]
How it was run: (§1)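 Quantification of soluble protein used TMTpro 16plex LC-MS/MS, with channel sums equalised. Samples were the supernatant after 21,000xg for 90 min of pooled aliquots from K562 cells (2×10^6 cells/mL) treated with 10 μM compound for 30 min, heated for 3 min over 48°C-58°C, and extracted in PBS with 0.5% NP-40 at 4°C. Values, from duplicates, describe thermal stability against control samples on a log2 fold-change scale.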

[1] = compound: C/C(=N\NC(=O)C1=CC(=CC=C1)S(=O)(=O)N2CCOCC2)/C3=C(C=CC(=C3)Cl)O
How it was run: as §1

[2] = compound: C1=CC(=C(C=C1Cl)C2=NC3=NC=CN=C3C(=N2)NC4=CC=NC=C4)F
How it was run: as §1

[3] = compound: C1=CC(=CC=C1C2=NC3=C(N2)C=C(C=C3)C(=O)N)OC4=CC=C(C=C4)Cl
How it was run: as §1

[4] = compound: C1=CC2=C(C=CC(=C2)/C=C\3/C(=O)NC(=NCC4=CC=CS4)S3)N=C1
How it was run: as §1

[5] = compound: C1=CC2=NC=CN=C2C=C1/C=C/3\C(=O)NC(=O)S3
How it was run: as §1

[6] = compound: C1=CC=C(C=C1)C2=NC(=C(N2)C3=CC=NC=C3)C4=CC(=C(C=C4)Cl)O
How it was run: as §1

[7] = compound: C1=CC=C2C(=C1)C3=NNC4=CC=CC(=C43)C2=O
How it was run: as §1

[8] = compound: C1CCN(C1)C(=O)NC2=CC=CC(=C2)NC3=NC=C(C(=N3)NCCC4=CN=CN4)Br
How it was run: as §1

[9] = compound: C1CN(CCC1(CC2=CC=C(C=C2)Cl)N)C3=NC=NC4=C3C=CN4
How it was run: as §1

IRAK-1-4 Inhibitor I = compound: C1COCCN1CCN2C3=CC=CC=C3N=C2NC(=O)C4=CC(=CC=C4)[N+](=O)[O-] [IRAK-1-4 Inhibitor I]
How it was run: as §1

ibrutinib = compound: C=CC(=O)N1CCC[C@@H](n2nc(-c3ccc(Oc4ccccc4)cc3)c3c(N)ncnc32)C1 [ibrutinib]
How it was run: as §1

[10] = compound: CC(=O)c1cnc2ccc(-c3cc(Cl)c(O)c(Cl)c3)nc2c1N[C@H]1CC[C@H](CN(C)C)CC1
How it was run: as §1

ralimetinib = compound: CC(C)(C)Cn1c(N)nc2ccc(-c3[nH]c(C(C)(C)C)nc3-c3ccc(F)cc3)nc21 [ralimetinib]
How it was run: as §1

[11] = compound: CC(C)(O)CC(=O)NCCn1ccc2ncnc(Nc3ccc(Oc4cccc(C(F)(F)F)c4)c(Cl)c3)c21
How it was run: as §1

[12] = compound: CC(C)C1=C2N=C(C=C(N2N=C1)NCC3=CC=CC=C3)NCCCCCCN
How it was run: as §1

[13] = compound: CC(C)C[C@@H](C=O)NC(=O)[C@H](CC(C)C)NC(=O)[C@H](CC(C)C)NC(=O)OCc1ccccc1
How it was run: as §1

pinometostat = compound: CC(C)N(C[C@H]1O[C@@H](n2cnc3c(N)ncnc32)[C@H](O)[C@@H]1O)[C@H]1C[C@@H](CCc2nc3cc(C(C)(C)C)ccc3[nH]2)C1 [pinometostat]
How it was run: as §1

[14] = compound: CC1=C(C(CC(=O)N1)C2=CC=C(C=C2)C(F)(F)F)C(=O)NC3=C(C=C4C(=C3)C=NN4)F
How it was run: as §1

[15] = compound: CC1=C(C2=C(C=C1)C(=O)C3=CC=CC=C3N2CCCN)C
How it was run: as §1

Measured: log2 fold change

RPL14 (UniProt P50914)
inactive: erlotinib -0.436 | [1] -0.354 | [2] -1.15 | [3] 0.08 | [4] -0.18 | [5] -0.041 | [6] -0.028 | [7] 0.053 | [8] -0.1 | [9] -0.532 | IRAK-1-4 Inhibitor I -0.19 | ibrutinib 0.072 | [10] 0.232 | ralimetinib 0.265 | [11] 0.055 | [12] -0.079 | [13] 0.199 | pinometostat 0.468 | [14] 0.129 | [15] -1.04

RPL3L (UniProt Q92901)
inactive: erlotinib -0.376 | [1] -0.28 | [2] -1.34 | [3] 0.118 | [4] -0.185 | [5] -0.048 | [6] -0.179 | [7] 0.009 | [8] 0.042 | [9] -0.515 | IRAK-1-4 Inhibitor I -0.208 | ibrutinib 0.052 | [10] 0.258 | ralimetinib 0.118 | [11] 0.084 | [12] -0.043 | [13] 0.088 | pinometostat 0.561 | [14] 0.079 | [15] -1.06

RPP38 (UniProt P78345)
inactive: erlotinib 0.002 | [1] -0.024 | [2] -0.053 | [3] 0.078 | [4] -0.036 | [5] 0.023 | [6] 0 | [7] -0.011 | [8] 0.029 | [9] 0.027 | IRAK-1-4 Inhibitor I -0.065 | ibrutinib -0.013 | [10] 0.014 | ralimetinib 0.003 | [11] -0.047 | [12] 0.013 | [13] 0.006 | pinometostat 0.011 | [14] -0.013 | [15] -0.064

RPL5 (UniProt P46777)
inactive: erlotinib -0.095 | [1] -0.219 | [2] -0.434 | [3] -0.03 | [4] -0.137 | [5] -0.026 | [6] -0.056 | [7] -0.035 | [8] 0.031 | [9] -0.121 | IRAK-1-4 Inhibitor I -0.186 | ibrutinib 0.058 | [10] 0.077 | ralimetinib 0.121 | [11] 0.072 | [12] 0.052 | [13] 0.114 | pinometostat 0.198 | [14] 0.065 | [15] -0.11

RPL28 (UniProt P46779)
inactive: erlotinib -0.372 | [1] -0.355 | [2] -1.14 | [3] 0.054 | [4] -0.21 | [5] -0.052 | [6] -0.146 | [7] 0.03 | [8] 0.069 | [9] -0.362 | IRAK-1-4 Inhibitor I -0.201 | ibrutinib 0.098 | [10] 0.303 | ralimetinib 0.26 | [11] 0.009 | [12] -0.002 | [13] 0.145 | pinometostat 0.505 | [14] 0.041 | [15] -0.75

RPL39P5 (UniProt Q59GN2)
inactive: erlotinib -0.181 | [1] -0.125 | [2] -0.496 | [3] -0.017 | [4] -0.183 | [5] -0.013 | [6] 0.021 | [7] 0.032 | [8] 0.101 | [9] -0.06 | IRAK-1-4 Inhibitor I -0.222 | ibrutinib 0.109 | [10] 0.194 | ralimetinib 0.221 | [11] 0.108 | [12] 0.075 | [13] 0.225 | pinometostat 0.206 | [14] 0.096 | [15] -0.567

RPL30 (UniProt P62888)
inactive: erlotinib -0.407 | [1] -0.32 | [2] -1.08 | [3] 0.087 | [4] -0.168 | [5] -0.047 | [6] -0.112 | [7] 0.069 | [8] 0.006 | [9] -0.394 | IRAK-1-4 Inhibitor I -0.364 | ibrutinib 0.115 | [10] 0.279 | ralimetinib 0.266 | [11] 0.088 | [12] 0.047 | [13] 0.173 | pinometostat 0.5 | [14] 0.123 | [15] -1.06

RPL7A (UniProt P62424)
inactive: erlotinib -0.432 | [1] -0.391 | [2] -1.13 | [3] 0.056 | [4] -0.27 | [5] -0.016 | [6] -0.049 | [7] 0.019 | [8] 0.036 | [9] -0.325 | IRAK-1-4 Inhibitor I -0.318 | ibrutinib 0.082 | [10] 0.288 | ralimetinib 0.268 | [11] 0.111 | [12] 0.037 | [13] 0.222 | pinometostat 0.534 | [14] 0.124 | [15] -0.997
